No constants are given. Whether binding was seen depends on the method and setting. Binding seen in cells or lysates may run through a third protein. A yes stands for co-enrichment or nearness to the bait. Other partners may have been found. No binding means not detected with the bait. Blank lines part the entries; values can stand above or below the molecule they belong to.
Tests used:
Experiment in all cases: affinity purification with mass spectrometry; I-2^SZY-2, SDS-22 and PP1β^GSP-1 each immunoprecipitated from worm extracts; immunoprecipitated material analysed by mass spectrometry
[1] = molecular target: I-2^SZY-2 (C. elegans homolog of inhibitor-2, regulator of protein phosphatase 1) (C. elegans (endogenous in N2 worms)) (UniProt Q9N537)
[2] = molecular target: T1, SDS-22 (C. elegans leucine-rich repeat PP1 regulator) (C. elegans (endogenous in N2 worms)) (UniProt P45969)
T1 sequence: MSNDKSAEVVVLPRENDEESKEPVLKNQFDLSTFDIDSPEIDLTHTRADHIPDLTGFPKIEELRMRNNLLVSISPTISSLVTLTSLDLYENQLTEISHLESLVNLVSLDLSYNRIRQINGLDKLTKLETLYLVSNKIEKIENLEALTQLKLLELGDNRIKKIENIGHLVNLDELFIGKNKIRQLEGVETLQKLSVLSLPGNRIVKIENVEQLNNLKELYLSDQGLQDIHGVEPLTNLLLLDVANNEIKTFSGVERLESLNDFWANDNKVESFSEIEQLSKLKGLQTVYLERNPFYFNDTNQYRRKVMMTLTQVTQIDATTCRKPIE

By UniProt entry, the sequences of proteins in these tests, tags left out.
UniProt Q27497: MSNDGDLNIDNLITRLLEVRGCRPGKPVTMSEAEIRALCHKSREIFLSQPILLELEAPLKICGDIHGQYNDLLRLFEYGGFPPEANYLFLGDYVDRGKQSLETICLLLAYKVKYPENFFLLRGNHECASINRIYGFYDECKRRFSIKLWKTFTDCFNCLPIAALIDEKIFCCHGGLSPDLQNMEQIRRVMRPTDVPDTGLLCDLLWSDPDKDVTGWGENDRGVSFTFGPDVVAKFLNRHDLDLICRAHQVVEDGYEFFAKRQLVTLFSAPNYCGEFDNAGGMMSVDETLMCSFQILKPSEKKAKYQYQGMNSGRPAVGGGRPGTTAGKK
UniProt P48727: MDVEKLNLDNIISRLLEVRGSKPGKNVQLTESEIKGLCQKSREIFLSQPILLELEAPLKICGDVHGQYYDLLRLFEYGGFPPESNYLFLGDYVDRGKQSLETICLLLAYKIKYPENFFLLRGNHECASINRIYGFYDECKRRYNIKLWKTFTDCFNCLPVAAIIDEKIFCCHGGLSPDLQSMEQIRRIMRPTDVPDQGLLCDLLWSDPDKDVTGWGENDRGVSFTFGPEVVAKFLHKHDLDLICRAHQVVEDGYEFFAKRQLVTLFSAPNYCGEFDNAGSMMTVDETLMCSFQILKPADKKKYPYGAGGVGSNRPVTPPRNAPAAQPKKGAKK

[3] = molecular target: PP1β^GSP-1 (C. elegans PP1 catalytic subunit, PP1β homolog) (C. elegans (endogenous in N2 worms)) (UniProt Q27497)

binding [1]: binds | binding [2]: binds
Molecule: PP1β^GSP-1 (C. elegans PP1 catalytic subunit, PP1β homolog) (from UniProt Q27497 1-329) (enzyme)

binding [1]: binds
Molecule: PP1α^GSP-2 (C. elegans PP1 catalytic subunit, PP1α homolog) (from UniProt P48727 1-333) (enzyme)

binding [1]: no binding | binding [2]: no binding | binding [3]: no binding
B1: ZYG-1 (C. elegans homolog of Plk4) (enzyme, UniProt Q9GT24 1-706)
chain: MSGGKSGSRLSAYSHLKEIGKGGFGVVYAAQRENGEKVAIKRIDKKVPKNRVWTEIQTMKELKKSKYVVEFYEDFVEDGYTYIVMELCEGGSLQAYVREHGALDDATAVHVLRQLISAVSFMHRVNVIHRDLSAGNVFIKDSKKKKMTVKLGDFGLATTLGRGETTCTIVGTPGFIAPQVYDQEYTQSADVYSLGAVLYTMLTARNPPPKGLPPTCGMSPNAARLVEQMMDTDAKKRIPLTQIVLSEFMYENTNENAVIFSREHSRDGRRQRSREPVRSSRDDRSRDGRALIRSSSQPAHSGRAPLSNRPIHDRMPSTSSRGFDSERGRERDRDSGRGTVPPSREDRNRSQLWPIRMDRLEGQRVCTAGGRYIVELDTRCRFEVAAQGNFVKRILIVEVDEMVQTVYVHRIPDRTVRGRNGEEELITLTNNPFVYTSYSQMPKEVQNDYMRLQKMVAVTISGRVAKVTFRRPSQFPDAQAQLMENGDLRIKLPRSVIVRKMDNGEIFNCIDGIATQKQAVSGITLTKVNEVYKYLIRFEQCLNGMDRGMVCFPIVFSAGTNMVGSSPSSLMPSGSSQTSRFPFSNLSNNQPSLVPHSAPFLTKPTSSQRASSANVQRRVSTDENSSPSVAPSKYKIKIDPTTQKVRSIQATDGRVLRCSTSKADQFIFTDPAIRPDDQRFMRTDRVPDRASEMLHTLCERMRKLHQ

binding [1]: no binding
B2: SDS-22 (C. elegans leucine-rich repeat PP1 regulator) (protein, UniProt P45969 1-326)
chain: T1 sequence
